These are yes or no findings as the source states them, for the method shown.
Biological target: human mitochondrial methionine aminopeptidase MetAP1D (residues 44-335) (human) (UniProt Q6UB28)
Test: SEC; HiLoad 16/600 Superdex 200 pg; 25 mM Tris-HCl pH 8.0, 100 mM sodium chloride, 0.5 mM TCEP; peak compared with standard proteins; both purified

Sequences of proteins named here, by UniProt entry; tags and fusion partners are left off. Residues count along the entry.
UniProt Q6UB28, residues 44-335: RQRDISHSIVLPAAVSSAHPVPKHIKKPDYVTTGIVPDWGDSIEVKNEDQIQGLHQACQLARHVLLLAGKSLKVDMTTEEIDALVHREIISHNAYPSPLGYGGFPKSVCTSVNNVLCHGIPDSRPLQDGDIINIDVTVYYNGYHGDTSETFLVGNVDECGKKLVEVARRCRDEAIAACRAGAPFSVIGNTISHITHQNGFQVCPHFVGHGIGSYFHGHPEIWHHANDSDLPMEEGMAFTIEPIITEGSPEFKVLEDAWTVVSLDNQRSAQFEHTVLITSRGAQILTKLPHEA

binding: no binding
Substance: human mitochondrial methionine aminopeptidase MetAP1D (residues 44-335) (from UniProt Q6UB28 44-335) (enzyme)

Reference: PMC10724148
